In article PMC9213445:
Results are given in words; binding and its absence hold for the method and conditions named. In cells and extracts the contact can be indirect. Here binding means that the protein was enriched with, or labelled near, the bait; the list need not be complete.

By UniProt entry, the sequences of proteins in these tests, tags left out.
UniProt P31153: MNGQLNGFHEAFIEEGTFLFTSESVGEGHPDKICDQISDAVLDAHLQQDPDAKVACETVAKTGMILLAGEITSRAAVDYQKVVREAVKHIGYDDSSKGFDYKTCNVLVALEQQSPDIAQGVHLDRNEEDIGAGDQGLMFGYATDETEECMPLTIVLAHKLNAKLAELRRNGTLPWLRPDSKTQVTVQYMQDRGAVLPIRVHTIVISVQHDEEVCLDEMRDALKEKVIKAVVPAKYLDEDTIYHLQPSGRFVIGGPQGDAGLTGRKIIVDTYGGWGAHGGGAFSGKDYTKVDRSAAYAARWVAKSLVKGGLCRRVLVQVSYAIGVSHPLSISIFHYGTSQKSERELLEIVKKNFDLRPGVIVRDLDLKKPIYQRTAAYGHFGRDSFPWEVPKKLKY

Molecular target: Flag-MAT2A (methionine adenosyltransferase 2A; protein name MATIIα) (human) (UniProt P31153)
Assay: affinity purification with mass spectrometry; TAP-MS: Flag-tagged plasmid transfected into HEK293T, 48 h; lysis in 0.3% NP-40 (150 mM NaCl, 50 mM Tris, pH 7.5); Flag beads at 4 °C for 4 h; SDS-PAGE, gel cut for mass spectrometry

binding	Binder
binds	RNF138 (protein, UniProt Q8WVD3 1-245) MAEDLSAATSYTEDDFYCPVCQEVLKTPVRTTACQHVFCRKCFLTAMRESGAHCPLCRGNVTRRERACPERALDLENIMRKFSGSCRCCAKQIKFYRMRHHYKSCKKYQDEYGVSSIIPNFQISQDSVGNSNRSETSTSDNTETYQENTSSSGHPTFKCPLCQESNFTRQRLLDHCNSNHLFQIVPVTCPICVSLPWGDPSQITRNFVSHLNQRHQFDYGEFVNLQLDEETQYQTAVEESFQVNI
binds	valosin-containing protein p97/p47 complex-interacting protein (VCIP135), found in the TAP-MS (enzyme, UniProt Q96JH7 1-1222) MSQPPPPPPPLPPPPPPPEAPQTPSSLASAAASGGLLKRRDRRILSGSCPDPKCQARLFFPASGSVSIECTECGQRHEQQQLLGVEEVTDPDVVLHNLLRNALLGVTGAPKKNTELVKVMGLSNYHCKLLSPILARYGMDKQTGRAKLLRDMNQGELFDCALLGDRAFLIEPEHVNTVGYGKDRSGSLLYLHDTLEDIKRANKSQECLIPVHVDGDGHCLVHAVSRALVGRELFWHALRENLKQHFQQHLARYQALFHDFIDAAEWEDIINECDPLFVPPEGVPLGLRNIHIFGLANVLHRPIILLDSLSGMRSSGDYSATFLPGLIPAEKCTGKDGHLNKPICIAWSSSGRNHYIPLVGIKGAALPKLPMNLLPKAWGVPQDLIKKYIKLEEDGGCVIGGDRSLQDKYLLRLVAAMEEVFMDKHGIHPSLVADVHQYFYRRTGVIGVQPEEVTAAAKKAVMDNRLHKCLLCGALSELHVPPEWLAPGGKLYNLAKSTHGQLRTDKNYSFPLNNLVCSYDSVKDVLVPDYGMSNLTACNWCHGTSVRKVRGDGSIVYLDGDRTNSRSTGGKCGCGFKHFWDGKEYDNLPEAFPITLEWGGRVVRETVYWFQYESDSSLNSNVYDVAMKLVTKHFPGEFGSEILVQKVVHTILHQTAKKNPDDYTPVNIDGAHAQRVGDVQGQESESQLPTKIILTGQKTKTLHKEELNMSKTERTIQQNITEQASVMQKRKTEKLKQEQKGQPRTVSPSTIRDGPSSAPATPTKAPYSPTTSKEKKIRITTNDGRQSMVTLKSSTTFFELQESIAREFNIPPYLQCIRYGFPPKELMPPQAGMEKEPVPLQHGDRITIEILKSKAEGGQSAAAHSAHTVKQEDIAVTGKLSSKELQEQAEKEMYSLCLLATLMGEDVWSYAKGLPHMFQQGGVFYSIMKKTMGMADGKHCTFPHLPGKTFVYNASEDRLELCVDAAGHFPIGPDVEDLVKEAVSQVRAEATTRSRESSPSHGLLKLGSGGVVKKKSEQLHNVTAFQGKGHSLGTASGNPHLDPRARETSVVRKHNTGTDFSNSSTKTEPSVFTASSSNSELIRIAPGVVTMRDGRQLDPDLVEAQRKKLQEMVSSIQASMDRHLRDQSTEQSPSDLPQRKTEVVSSSAKSGSLQTGLPESFPLTGGTENLNTETTDGCVADALGAAFATRSKAQRGNSVEELEEMDSQDAEMTNTTEPMDHS
